A negative result means that nothing was seen under these conditions. Tags and fusion partners may be left off the protein sequences shown. For some assays here: Construct, isoform or probe ends are uncertain for at least one entry.

Data set [1] deals with T1, MnoR (Mycobacterium smegmatis) (UniProt A0R5L8).
T1 sequence (looked up): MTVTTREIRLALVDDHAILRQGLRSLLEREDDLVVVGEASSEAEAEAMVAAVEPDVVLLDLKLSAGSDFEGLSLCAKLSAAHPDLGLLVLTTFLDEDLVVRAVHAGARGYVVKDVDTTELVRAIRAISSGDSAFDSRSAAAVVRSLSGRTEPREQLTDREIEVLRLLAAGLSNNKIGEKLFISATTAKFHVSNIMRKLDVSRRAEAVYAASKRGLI
Description: EMSA. As to conditions: 10 ng salmon sperm DNA, up to 10 µM MnoR; EMSA: 50 mM Tris-HCl (pH not stated), 100 mM NaCl, 10 mM MgCl2, 100 ug/ml BSA, 5% glycerol, 5 nM DNA, 30 min 25 °C, 5% native gel at 4 °C; recombinant protein; residues 1-216; protein details: N-terminal 6xHis; label: 5'-Cy5 on strand 1.

In data set [2] the target is T1, MnoR (Mycobacterium smegmatis). Description: MST. As to conditions: PBS-T, room temperature, DNA 60 nM (perfect), 15 nM (2MM), 120 nM (4MM), recombinant protein, residues 1-216, protein details: N-terminal 6xHis, label: 5'-Cy5 on strand 1.

Take “ACCTGGCGGATCTGAGCCCGGCAGGCGATCCGCACACCGGTACCGTGCTGGTGGGCGCGAGCCCCGAGTTGCTGGTCGCCCGCGACG / CGTCGCGGGCGACCAGCAACTCGGGGCTCGCGCCCACCAAGCACGGTACCGGTGTGCGGATCGCCTGCCGGGCTCAGATCCGCCAGGT [mno 2MM]”: the binding result in data set [1] is “no binding”. Further, in data set [2], the Kd worked out at 11.7 µM. Consider “CACGCTGATCACGTCCGACGTCGACGAGCGCGACCAGCCGTTCATCACCGGTGAGCGCACCAAGGAAGGCTTCTTCCGCGTGAAGAA (double strand) [mno 4MM]”, for which the binding result in data set [1] and in data set [2] (up to 27.5 µM MnoR) was “no binding” throughout.

In the case of “GCTGGAGGAGGCGTTCACCGCTGACTGGCTCGCCCAGCACTCCTAAGCCGGTGGGCGCCGTCACCCGCGGCACCACCGGTTACAACC (double strand) [mno 3MM]”, the binding result in data set [1] is on record as “no binding”.

For the origin of these results see paper PMC11303327, “MnoSR removal in Mycobacterium smegmatis triggers broad transcriptional response to 1,3-propanediol and glucose as sole carbon sources”.
